# Test results from the supplement of paper PMC6411743.
# ± gives the standard deviation of the averaged measurements. This is a selection; strong and weak results do not stand in their true shares.
# What was measured:
# Assay in all cases: NP40-soluble protein abundance relative to vehicle (solubility fold change) (ratio); higher = more soluble protein in presence of ATP
# CAMLG = biological target: T1, CAMLG (UniProt P49069)
# T1 sequence (whole entry): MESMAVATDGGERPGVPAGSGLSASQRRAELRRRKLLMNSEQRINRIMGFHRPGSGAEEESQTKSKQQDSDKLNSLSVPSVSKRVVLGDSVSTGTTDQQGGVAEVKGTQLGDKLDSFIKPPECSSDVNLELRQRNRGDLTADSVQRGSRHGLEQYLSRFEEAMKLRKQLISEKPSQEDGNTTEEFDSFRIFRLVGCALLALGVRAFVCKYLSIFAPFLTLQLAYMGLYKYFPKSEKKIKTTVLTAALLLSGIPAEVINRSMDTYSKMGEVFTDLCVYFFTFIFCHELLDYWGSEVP
# How it was run: (§1)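 Eight concentrations, 0.1 to 10 mM, were tested on Jurkat crude lysate for 10 min at room temperature and then 3 min at 37 °C, in three independent experiments. The lysate was solubilised with 0.8% NP40 and benzonase, ultracentrifuged, and the supernatant TMT-labelled for LC-MS/MS. Each value is the fold change against the detergent-processed vehicle in its own replicate, from vsn-normalised intensities.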
# GLRX = biological target: T2, GLRX (UniProt P35754)
# T2 sequence (whole entry): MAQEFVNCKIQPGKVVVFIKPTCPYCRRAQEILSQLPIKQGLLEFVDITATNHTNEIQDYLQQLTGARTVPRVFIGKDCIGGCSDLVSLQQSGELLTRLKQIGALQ
# How it was run: as §1
# HNRNPF = biological target: T3, HNRNPF (UniProt P52597)
# T3 sequence (whole entry): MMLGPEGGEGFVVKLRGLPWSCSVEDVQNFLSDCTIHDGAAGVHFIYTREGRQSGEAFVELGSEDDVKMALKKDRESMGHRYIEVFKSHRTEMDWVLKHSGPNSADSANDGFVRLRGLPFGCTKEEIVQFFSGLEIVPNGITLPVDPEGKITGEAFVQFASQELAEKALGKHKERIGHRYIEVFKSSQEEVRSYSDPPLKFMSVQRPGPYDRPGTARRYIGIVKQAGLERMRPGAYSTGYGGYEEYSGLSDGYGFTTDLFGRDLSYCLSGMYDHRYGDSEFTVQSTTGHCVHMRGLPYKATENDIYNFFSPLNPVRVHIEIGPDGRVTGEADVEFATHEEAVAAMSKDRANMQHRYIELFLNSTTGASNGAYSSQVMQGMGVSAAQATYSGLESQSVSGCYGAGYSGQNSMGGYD
# How it was run: as §1
# MDH2 = biological target: T4, MDH2 (UniProt P40926)
# T4 sequence (whole entry): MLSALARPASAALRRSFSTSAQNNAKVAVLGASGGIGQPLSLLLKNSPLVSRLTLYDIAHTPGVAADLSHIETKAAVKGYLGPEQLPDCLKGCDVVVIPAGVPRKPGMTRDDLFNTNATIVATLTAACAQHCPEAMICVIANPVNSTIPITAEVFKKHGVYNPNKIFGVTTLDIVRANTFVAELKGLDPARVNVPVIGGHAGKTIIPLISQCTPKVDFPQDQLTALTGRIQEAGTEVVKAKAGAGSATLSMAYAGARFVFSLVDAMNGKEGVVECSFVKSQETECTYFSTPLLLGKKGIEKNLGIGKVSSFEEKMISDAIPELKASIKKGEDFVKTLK
# How it was run: as §1
# PIP4K2A = biological target: T5, PIP4K2A (UniProt P48426)
# T5 sequence (whole entry): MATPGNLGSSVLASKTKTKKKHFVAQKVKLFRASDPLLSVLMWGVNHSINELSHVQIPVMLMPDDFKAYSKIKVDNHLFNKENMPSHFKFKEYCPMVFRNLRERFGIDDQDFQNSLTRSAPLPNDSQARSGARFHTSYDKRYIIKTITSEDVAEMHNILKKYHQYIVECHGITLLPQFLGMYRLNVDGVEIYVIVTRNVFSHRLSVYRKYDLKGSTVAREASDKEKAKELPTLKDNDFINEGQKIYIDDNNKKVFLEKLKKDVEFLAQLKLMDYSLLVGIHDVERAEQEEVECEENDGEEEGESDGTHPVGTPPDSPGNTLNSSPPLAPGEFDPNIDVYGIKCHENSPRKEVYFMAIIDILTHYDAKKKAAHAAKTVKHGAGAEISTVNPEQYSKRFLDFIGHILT
# How it was run: as §1
# PPM1A = biological target: T6, PPM1A (UniProt P35813)
# T6 sequence (whole entry): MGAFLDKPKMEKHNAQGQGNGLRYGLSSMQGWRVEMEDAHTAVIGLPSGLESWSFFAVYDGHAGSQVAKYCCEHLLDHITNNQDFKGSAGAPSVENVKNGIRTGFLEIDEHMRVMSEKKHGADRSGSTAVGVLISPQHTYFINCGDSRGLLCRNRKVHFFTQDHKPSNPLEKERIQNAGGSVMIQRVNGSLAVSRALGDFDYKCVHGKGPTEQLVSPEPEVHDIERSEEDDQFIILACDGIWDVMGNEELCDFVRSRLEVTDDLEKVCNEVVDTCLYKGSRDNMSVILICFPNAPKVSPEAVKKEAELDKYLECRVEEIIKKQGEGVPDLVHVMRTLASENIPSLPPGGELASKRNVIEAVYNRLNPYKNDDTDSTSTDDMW
# How it was run: as §1
# PPM1F = biological target: T7, PPM1F (UniProt P49593)
# T7 sequence (whole entry): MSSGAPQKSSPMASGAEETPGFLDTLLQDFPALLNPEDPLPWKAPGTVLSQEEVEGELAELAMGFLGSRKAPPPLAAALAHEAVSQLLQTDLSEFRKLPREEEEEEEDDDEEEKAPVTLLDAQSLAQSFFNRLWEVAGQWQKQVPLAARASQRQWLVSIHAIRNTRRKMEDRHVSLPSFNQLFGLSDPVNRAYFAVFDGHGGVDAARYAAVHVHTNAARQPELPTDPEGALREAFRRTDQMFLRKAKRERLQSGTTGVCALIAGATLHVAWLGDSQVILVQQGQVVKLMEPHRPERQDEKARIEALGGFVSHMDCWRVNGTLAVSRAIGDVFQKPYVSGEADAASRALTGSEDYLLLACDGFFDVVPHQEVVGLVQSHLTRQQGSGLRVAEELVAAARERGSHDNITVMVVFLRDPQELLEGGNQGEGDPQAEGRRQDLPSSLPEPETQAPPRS
# How it was run: as §1
# RAB9A = biological target: T8, RAB9A (UniProt P51151)
# T8 sequence (whole entry): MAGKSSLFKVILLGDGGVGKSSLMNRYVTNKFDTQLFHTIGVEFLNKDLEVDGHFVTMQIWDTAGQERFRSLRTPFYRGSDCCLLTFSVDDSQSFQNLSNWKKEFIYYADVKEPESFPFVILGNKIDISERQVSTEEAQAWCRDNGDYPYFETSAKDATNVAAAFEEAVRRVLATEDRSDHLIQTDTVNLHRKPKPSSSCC
# How it was run: as §1
smiles,measurement,setting,value
Nc1ncnc2c1ncn2[C@@H]1O[C@H](COP(=O)(O)OP(=O)(O)OP(=O)(O)O)[C@@H](O)[C@H]1O [adenosine triphosphate],NP40-soluble protein abundance,CAMLG; concentration: 1mM,0.901 ± 0.1
same,NP40-soluble protein abundance,CAMLG; concentration: 2mM,0.933 ± 0.037
same,NP40-soluble protein abundance,CAMLG; concentration: 4mM,0.903 ± 0.08
same,NP40-soluble protein abundance,CAMLG; concentration: 6mM,0.965 ± 0.052
same,NP40-soluble protein abundance,CAMLG; concentration: 8mM,0.882 ± 0.039
same,NP40-soluble protein abundance,CAMLG; concentration: 10mM,0.891 ± 0.062
same,NP40-soluble protein abundance,GLRX; concentration: 1mM,0.944 ± 0.092
same,NP40-soluble protein abundance,GLRX; concentration: 2mM,0.94 ± 0.075
same,NP40-soluble protein abundance,GLRX; concentration: 4mM,0.967 ± 0.077
same,NP40-soluble protein abundance,GLRX; concentration: 6mM,0.914 ± 0.059
same,NP40-soluble protein abundance,GLRX; concentration: 8mM,0.949 ± 0.047
same,NP40-soluble protein abundance,GLRX; concentration: 10mM,0.889 ± 0.092
same,NP40-soluble protein abundance,HNRNPF; concentration: 1mM,0.996 ± 0.043
same,NP40-soluble protein abundance,HNRNPF; concentration: 2mM,1 ± 0.04
same,NP40-soluble protein abundance,HNRNPF; concentration: 4mM,0.98 ± 0.053
same,NP40-soluble protein abundance,HNRNPF; concentration: 6mM,0.986 ± 0.075
same,NP40-soluble protein abundance,HNRNPF; concentration: 8mM,0.999 ± 0.049
same,NP40-soluble protein abundance,HNRNPF; concentration: 10mM,0.983 ± 0.04
same,NP40-soluble protein abundance,MDH2; concentration: 1mM,0.966 ± 0.022
same,NP40-soluble protein abundance,MDH2; concentration: 2mM,0.936 ± 0.017
same,NP40-soluble protein abundance,MDH2; concentration: 4mM,0.893 ± 0.0097
same,NP40-soluble protein abundance,MDH2; concentration: 6mM,0.961 ± 0.028
same,NP40-soluble protein abundance,MDH2; concentration: 8mM,0.901 ± 0.028
same,NP40-soluble protein abundance,MDH2; concentration: 10mM,0.897 ± 0.033
same,NP40-soluble protein abundance,PIP4K2A; concentration: 1mM,0.979 ± 0.011
same,NP40-soluble protein abundance,PIP4K2A; concentration: 2mM,1.04 ± 0.024
same,NP40-soluble protein abundance,PIP4K2A; concentration: 4mM,1.06 ± 0.056
same,NP40-soluble protein abundance,PIP4K2A; concentration: 6mM,1.14 ± 0.041
same,NP40-soluble protein abundance,PIP4K2A; concentration: 8mM,1.1 ± 0.042
same,NP40-soluble protein abundance,PIP4K2A; concentration: 10mM,1.08 ± 0.03
same,NP40-soluble protein abundance,PPM1A; concentration: 1mM,0.98 ± 0.023
same,NP40-soluble protein abundance,PPM1A; concentration: 2mM,0.973 ± 0.028
same,NP40-soluble protein abundance,PPM1A; concentration: 4mM,0.955 ± 0.025
same,NP40-soluble protein abundance,PPM1A; concentration: 6mM,1.01 ± 0.026
same,NP40-soluble protein abundance,PPM1A; concentration: 8mM,0.951 ± 0.03
same,NP40-soluble protein abundance,PPM1A; concentration: 10mM,0.944 ± 0.039
same,NP40-soluble protein abundance,PPM1F; concentration: 1mM,0.969 ± 0.018
same,NP40-soluble protein abundance,PPM1F; concentration: 2mM,0.9861 ± 0.0097
same,NP40-soluble protein abundance,PPM1F; concentration: 4mM,0.968 ± 0.015
same,NP40-soluble protein abundance,PPM1F; concentration: 6mM,0.978 ± 0.024
same,NP40-soluble protein abundance,PPM1F; concentration: 8mM,0.939 ± 0.043
same,NP40-soluble protein abundance,PPM1F; concentration: 10mM,0.947 ± 0.015
same,NP40-soluble protein abundance,RAB9A; concentration: 1mM,0.958 ± 0.061
same,NP40-soluble protein abundance,RAB9A; concentration: 2mM,0.985 ± 0.086
same,NP40-soluble protein abundance,RAB9A; concentration: 4mM,1 ± 0.012

# At a glance, part of the list above:
smiles,measurement,setting,value
Nc1ncnc2c1ncn2[C@@H]1O[C@H](COP(=O)(O)OP(=O)(O)OP(=O)(O)O)[C@@H](O)[C@H]1O [adenosine triphosphate],NP40-soluble protein abundance,RAB9A; concentration: 2mM,0.985 ± 0.086
same,NP40-soluble protein abundance,RAB9A; concentration: 4mM,1 ± 0.012
